# Data from patent publication US20210155697A1 (UNITY BIOTECHNOLOGY, published 2021).
# The chains behind the UniProt entries cited, without tags or fusion partners. Where a name states a change or a piece, a line headed by the entry shows the natural chain unless it says otherwise.
# UniProt Q02763: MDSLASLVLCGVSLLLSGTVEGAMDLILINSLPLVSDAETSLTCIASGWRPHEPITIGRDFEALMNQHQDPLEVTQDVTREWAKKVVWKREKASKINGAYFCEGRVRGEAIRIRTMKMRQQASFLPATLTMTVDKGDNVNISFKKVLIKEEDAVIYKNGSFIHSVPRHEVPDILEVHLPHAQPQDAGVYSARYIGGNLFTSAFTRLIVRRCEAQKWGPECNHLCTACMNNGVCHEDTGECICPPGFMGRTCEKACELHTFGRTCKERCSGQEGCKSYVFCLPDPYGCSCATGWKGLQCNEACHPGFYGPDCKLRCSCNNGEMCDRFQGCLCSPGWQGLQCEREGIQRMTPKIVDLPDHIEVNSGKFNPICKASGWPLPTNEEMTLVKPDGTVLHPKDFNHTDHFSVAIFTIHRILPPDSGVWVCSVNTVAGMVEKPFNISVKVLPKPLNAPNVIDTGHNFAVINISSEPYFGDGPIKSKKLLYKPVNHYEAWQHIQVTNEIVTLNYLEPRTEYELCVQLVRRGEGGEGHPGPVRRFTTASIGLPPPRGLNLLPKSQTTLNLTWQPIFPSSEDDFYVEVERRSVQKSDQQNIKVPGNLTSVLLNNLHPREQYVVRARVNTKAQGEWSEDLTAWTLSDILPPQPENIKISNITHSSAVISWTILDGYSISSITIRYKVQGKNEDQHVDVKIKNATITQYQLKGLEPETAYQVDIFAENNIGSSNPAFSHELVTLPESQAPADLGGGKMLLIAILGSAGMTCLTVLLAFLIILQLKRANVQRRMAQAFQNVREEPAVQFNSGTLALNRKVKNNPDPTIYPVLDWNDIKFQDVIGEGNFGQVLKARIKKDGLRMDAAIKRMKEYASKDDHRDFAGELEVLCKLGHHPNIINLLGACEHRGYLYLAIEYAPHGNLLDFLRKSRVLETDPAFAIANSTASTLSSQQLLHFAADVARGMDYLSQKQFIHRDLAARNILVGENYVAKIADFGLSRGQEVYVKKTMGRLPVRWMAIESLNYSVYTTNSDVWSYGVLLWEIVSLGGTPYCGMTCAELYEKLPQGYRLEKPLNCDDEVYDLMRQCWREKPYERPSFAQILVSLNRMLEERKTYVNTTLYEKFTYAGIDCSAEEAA
# Results are given in words; binding and its absence hold for the method and conditions named. Some results given as binding are weak or reduced against the parent protein; the word gives no strength.
# Target: recombinant his-tagged Tie2 ECD (Homo sapiens (Human)) (UniProt Q02763)
# Test: BLI, his-tagged Tie2 ECD (100 nM) on Ni-NTA biosensor, antibody at 100 nM
row,binding,Binder
1,binds,"human anti-Tie2 antibody #2 (antibody, V domains shown, also called Ab #2; Antibody Clone # 2) VH: DVQLVESGGGVVRPGESLRLSCAASGFSFINFAMTWVRQAPGEGPEWVSLISDDGRGNRPYYADSVKGRFTISRDNSKNILYLQMNSLRVEDTATYYCAKVSWDVFFDYWGLGTVVTVSS VL: EIVLTQSPGTVSLSPGERVTLSCRASQPIDVYLAWYQQKPGQAPRLLIYGANRRAIDIPDRFSGSGSGTEFTLTINSLQNEDFAVYFCQQYMTWPPVTFGGGTKVEIK"
2,binds,"human anti-Tie2 antibody #3 (antibody, V domains shown, also called Ab #3; Antibody Clone # 3) VH: DVQLVESGGGVVRPGESLRLSCTASGFTFDSYGMSWVRQAPGKGLEWVSSINVGDNTYYADSVRGRFIISRDSSRNTLYLQMNSLTAEDTAVYYCANWNSFFDYWGLGTLVTVSS VL: EIVLTQSPGTLSLSPGEIATLSCRASQNVRSDLAWYQQKPGQAPRLLIYDASNRATGIPDRFSGSGSGTDFTLTISSLQSEDFAVYYCQQYSNWPPLTFGGGTKVEIK"
3,binds,"human anti-Tie2 antibody #1 (antibody, V domains shown, also called Ab #1; Antibody Clone # 1) VH: DVQLVESGGGVVRPGESLRLSCAASGFTFSSYAMSWVRQAPGEGLEWVARISDYTIYYADSVKGRFTISRDNSKNTLYLQMNSLRAEDTAVYYCAKSGPKSGKYWNNFFDSWGLGTLVTVSS VL: EIVLTQSPGTLSVSPGERATLTCRASQSVKTDLAWYQQKPGQAPRLLIYGATTRATGIPARFSGSGSGTEFTLTITNLQSEDFAVYYCQQYYVWPPLTFGGGTKVEIK"
